# Reference: the supplement of paper PMC11438910
# The other results are listed elsewhere or left out. The signal is at background level for most entries.
# B1: 4-80.1 (protein)
# chain 1: QVQLQESGPGLVKPSETLSLTCAVSGIPISTYWWSWIRQTPEKGLEWIGEIDGNGGGTNYNPSLQSRVTFSKDASKNQFSLRLNSVTAADTAVFYCARLWGNAYWGQGVLVTVSS
# chain 2: DVVMTQSPLSLPINPGQPASISCRSSQSLVYSDGKTYLTWYQQKPGQPPRRLIYQVSKRDSGVPDRFSGSGAGTDFTLKISRVESEDVGIYYCLQGTHLPYTFGQGTKVEIK
# What was measured:
# Experiment in all cases: fluorescence intensity of antibody binding to polysaccharide-coupled beads; higher = stronger binding
# [1] = biological target: pneumococcal polysaccharide Pn11A
# [2] = biological target: pneumococcal polysaccharide Pn11B
# [3] = biological target: pneumococcal polysaccharide Pn11C
# [4] = biological target: pneumococcal polysaccharide Pn11D
# [5] = biological target: pneumococcal polysaccharide Pn11F
# [6] = biological target: pneumococcal polysaccharide Pn12A
# [7] = biological target: pneumococcal polysaccharide Pn12B
# [8] = biological target: pneumococcal polysaccharide Pn12F
# [9] = biological target: pneumococcal polysaccharide Pn13
# [10] = biological target: pneumococcal polysaccharide Pn14
# [11] = biological target: pneumococcal polysaccharide Pn15A
# [12] = biological target: pneumococcal polysaccharide Pn15B
# [13] = biological target: pneumococcal polysaccharide Pn15C
# [14] = biological target: pneumococcal polysaccharide Pn15F
# [15] = biological target: pneumococcal polysaccharide Pn16A
# [16] = biological target: pneumococcal polysaccharide Pn16F
# [17] = biological target: pneumococcal polysaccharide Pn17A
# [18] = biological target: pneumococcal polysaccharide Pn17F
# [19] = biological target: pneumococcal polysaccharide Pn18A
# [20] = biological target: pneumococcal polysaccharide Pn18B
# [21] = biological target: pneumococcal polysaccharide Pn18C
# [22] = biological target: pneumococcal polysaccharide Pn18F
# [23] = biological target: pneumococcal polysaccharide Pn19A
# [24] = antibody concentration 81.7561 ng/mL
# [25] = antibody concentration 437.17 ng/mL
# [26] = antibody concentration 2337.65 ng/mL
# [27] = antibody concentration 12500 ng/mL
# [28] = antibody concentration 0.1 ng/mL
# [29] = antibody concentration 0.534724 ng/mL
# [30] = antibody concentration 2.8593 ng/mL
# [31] = antibody concentration 15.2894 ng/mL
binder,measurement,setting,value
B1,fluorescence intensity,[1]; [24],49.8 MFI
same,fluorescence intensity,[1]; [25],224 MFI
same,fluorescence intensity,[1]; [26],408 MFI
same,fluorescence intensity,[1]; [27],493 MFI
same,fluorescence intensity,[2]; [28],26.8 MFI
same,fluorescence intensity,[2]; [29],26 MFI
same,fluorescence intensity,[2]; [30],28.2 MFI
same,fluorescence intensity,[2]; [31],36.8 MFI
same,fluorescence intensity,[2]; [24],122 MFI
same,fluorescence intensity,[2]; [25],885 MFI
same,fluorescence intensity,[2]; [26],1960 MFI
same,fluorescence intensity,[2]; [27],2320 MFI
same,fluorescence intensity,[3]; [28],22.2 MFI
same,fluorescence intensity,[3]; [29],22 MFI
same,fluorescence intensity,[3]; [30],21.8 MFI
same,fluorescence intensity,[3]; [31],21.5 MFI
same,fluorescence intensity,[3]; [24],23 MFI
same,fluorescence intensity,[3]; [25],27.5 MFI
same,fluorescence intensity,[3]; [26],38.8 MFI
same,fluorescence intensity,[3]; [27],72.8 MFI
same,fluorescence intensity,[4]; [28],23 MFI
same,fluorescence intensity,[4]; [29],22.5 MFI
same,fluorescence intensity,[4]; [30],23 MFI
same,fluorescence intensity,[4]; [31],32.5 MFI
same,fluorescence intensity,[4]; [24],94.2 MFI
same,fluorescence intensity,[4]; [25],576 MFI
same,fluorescence intensity,[4]; [26],1250 MFI
same,fluorescence intensity,[4]; [27],1700 MFI
same,fluorescence intensity,[5]; [28],13.5 MFI
same,fluorescence intensity,[5]; [29],14 MFI
same,fluorescence intensity,[5]; [30],14 MFI
same,fluorescence intensity,[5]; [31],15.8 MFI
same,fluorescence intensity,[5]; [24],41.8 MFI
same,fluorescence intensity,[5]; [25],465 MFI
same,fluorescence intensity,[5]; [26],1260 MFI
same,fluorescence intensity,[5]; [27],1750 MFI
same,fluorescence intensity,[6]; [28],14.5 MFI
same,fluorescence intensity,[6]; [29],15.5 MFI
same,fluorescence intensity,[6]; [30],15 MFI
same,fluorescence intensity,[6]; [31],22 MFI
same,fluorescence intensity,[6]; [24],47.5 MFI
same,fluorescence intensity,[6]; [25],468 MFI
same,fluorescence intensity,[6]; [26],1360 MFI
same,fluorescence intensity,[6]; [27],2010 MFI
same,fluorescence intensity,[7]; [28],15.5 MFI
same,fluorescence intensity,[7]; [29],14 MFI
same,fluorescence intensity,[7]; [30],17 MFI
same,fluorescence intensity,[7]; [31],20.5 MFI
same,fluorescence intensity,[7]; [24],66 MFI
same,fluorescence intensity,[7]; [25],542 MFI
same,fluorescence intensity,[7]; [26],1300 MFI
same,fluorescence intensity,[7]; [27],1930 MFI
same,fluorescence intensity,[8]; [28],19.5 MFI
same,fluorescence intensity,[8]; [29],19.2 MFI
same,fluorescence intensity,[8]; [30],20.2 MFI
same,fluorescence intensity,[8]; [31],33.2 MFI
same,fluorescence intensity,[8]; [24],148 MFI
same,fluorescence intensity,[8]; [25],657 MFI
same,fluorescence intensity,[8]; [26],1170 MFI
same,fluorescence intensity,[8]; [27],1430 MFI
same,fluorescence intensity,[9]; [28],20 MFI
same,fluorescence intensity,[9]; [29],20 MFI
same,fluorescence intensity,[9]; [30],20 MFI
same,fluorescence intensity,[9]; [31],40.5 MFI
same,fluorescence intensity,[9]; [24],200 MFI
same,fluorescence intensity,[9]; [25],1340 MFI
same,fluorescence intensity,[9]; [26],2540 MFI
same,fluorescence intensity,[9]; [27],3060 MFI
same,fluorescence intensity,[10]; [28],14.5 MFI
same,fluorescence intensity,[10]; [29],13.8 MFI
same,fluorescence intensity,[10]; [30],15 MFI
same,fluorescence intensity,[10]; [31],19 MFI
same,fluorescence intensity,[10]; [24],42.8 MFI
same,fluorescence intensity,[10]; [25],106 MFI
same,fluorescence intensity,[10]; [26],158 MFI
same,fluorescence intensity,[10]; [27],212 MFI
same,fluorescence intensity,[11]; [28],13 MFI
same,fluorescence intensity,[11]; [29],13.5 MFI
same,fluorescence intensity,[11]; [30],13 MFI
same,fluorescence intensity,[11]; [31],19 MFI
same,fluorescence intensity,[11]; [24],59.8 MFI
same,fluorescence intensity,[11]; [25],435 MFI
same,fluorescence intensity,[11]; [26],965 MFI
same,fluorescence intensity,[11]; [27],1360 MFI
same,fluorescence intensity,[12]; [28],20.5 MFI
same,fluorescence intensity,[12]; [29],19 MFI
same,fluorescence intensity,[12]; [30],19.5 MFI
same,fluorescence intensity,[12]; [31],25.5 MFI
same,fluorescence intensity,[12]; [24],62.2 MFI
same,fluorescence intensity,[12]; [25],279 MFI
same,fluorescence intensity,[12]; [26],582 MFI
same,fluorescence intensity,[12]; [27],816 MFI
same,fluorescence intensity,[13]; [28],19.5 MFI
same,fluorescence intensity,[13]; [29],18 MFI
same,fluorescence intensity,[13]; [30],17.5 MFI
same,fluorescence intensity,[13]; [31],18 MFI
same,fluorescence intensity,[13]; [24],24 MFI
same,fluorescence intensity,[13]; [25],71.5 MFI
same,fluorescence intensity,[13]; [26],178 MFI
same,fluorescence intensity,[13]; [27],194 MFI
same,fluorescence intensity,[14]; [28],18.8 MFI
same,fluorescence intensity,[14]; [29],21 MFI
same,fluorescence intensity,[14]; [30],42.8 MFI
same,fluorescence intensity,[14]; [31],279 MFI
same,fluorescence intensity,[14]; [24],1010 MFI
same,fluorescence intensity,[14]; [25],2880 MFI
same,fluorescence intensity,[14]; [26],3600 MFI
same,fluorescence intensity,[14]; [27],3630 MFI
same,fluorescence intensity,[15]; [28],14.8 MFI
same,fluorescence intensity,[15]; [29],14.5 MFI
same,fluorescence intensity,[15]; [30],14.5 MFI
same,fluorescence intensity,[15]; [31],15 MFI
same,fluorescence intensity,[15]; [24],23 MFI
same,fluorescence intensity,[15]; [25],56 MFI
same,fluorescence intensity,[15]; [26],160 MFI
same,fluorescence intensity,[15]; [27],301 MFI
same,fluorescence intensity,[16]; [28],23 MFI
same,fluorescence intensity,[16]; [29],25.5 MFI
same,fluorescence intensity,[16]; [30],24 MFI
same,fluorescence intensity,[16]; [31],24.8 MFI
same,fluorescence intensity,[16]; [24],26.8 MFI
same,fluorescence intensity,[16]; [25],59.5 MFI
same,fluorescence intensity,[16]; [26],122 MFI
same,fluorescence intensity,[16]; [27],206 MFI
same,fluorescence intensity,[17]; [28],20 MFI
same,fluorescence intensity,[17]; [29],21 MFI
same,fluorescence intensity,[17]; [30],22 MFI
same,fluorescence intensity,[17]; [31],27 MFI
same,fluorescence intensity,[17]; [24],87 MFI
same,fluorescence intensity,[17]; [25],660 MFI
same,fluorescence intensity,[17]; [26],1370 MFI
same,fluorescence intensity,[17]; [27],1840 MFI
same,fluorescence intensity,[18]; [28],26.5 MFI
same,fluorescence intensity,[18]; [29],26.5 MFI
same,fluorescence intensity,[18]; [30],28 MFI
same,fluorescence intensity,[18]; [31],54.5 MFI
same,fluorescence intensity,[18]; [24],218 MFI
same,fluorescence intensity,[18]; [25],1100 MFI
same,fluorescence intensity,[18]; [26],1810 MFI
same,fluorescence intensity,[18]; [27],2040 MFI
same,fluorescence intensity,[19]; [28],23.5 MFI
same,fluorescence intensity,[19]; [29],24.5 MFI
same,fluorescence intensity,[19]; [30],23 MFI
same,fluorescence intensity,[19]; [31],27 MFI
same,fluorescence intensity,[19]; [24],42.2 MFI
same,fluorescence intensity,[19]; [25],265 MFI
same,fluorescence intensity,[19]; [26],690 MFI
same,fluorescence intensity,[19]; [27],1060 MFI
same,fluorescence intensity,[20]; [28],30 MFI
same,fluorescence intensity,[20]; [29],30.5 MFI
same,fluorescence intensity,[20]; [30],38.8 MFI
same,fluorescence intensity,[20]; [31],125 MFI
same,fluorescence intensity,[20]; [24],419 MFI
same,fluorescence intensity,[20]; [25],1270 MFI
same,fluorescence intensity,[20]; [26],1750 MFI
same,fluorescence intensity,[20]; [27],1930 MFI
same,fluorescence intensity,[21]; [28],20.5 MFI
same,fluorescence intensity,[21]; [29],20 MFI
same,fluorescence intensity,[21]; [30],18.5 MFI
same,fluorescence intensity,[21]; [31],22.5 MFI
same,fluorescence intensity,[21]; [24],33.5 MFI
same,fluorescence intensity,[21]; [25],180 MFI
same,fluorescence intensity,[21]; [26],369 MFI
same,fluorescence intensity,[21]; [27],534 MFI
same,fluorescence intensity,[22]; [28],23.5 MFI
same,fluorescence intensity,[22]; [29],23 MFI
same,fluorescence intensity,[22]; [30],23.5 MFI
same,fluorescence intensity,[22]; [31],26 MFI
same,fluorescence intensity,[22]; [24],47.5 MFI
same,fluorescence intensity,[22]; [25],254 MFI
same,fluorescence intensity,[22]; [26],607 MFI
same,fluorescence intensity,[22]; [27],916 MFI
same,fluorescence intensity,[23]; [28],18 MFI
same,fluorescence intensity,[23]; [29],19.8 MFI
same,fluorescence intensity,[23]; [30],18.5 MFI
same,fluorescence intensity,[23]; [31],22.8 MFI
same,fluorescence intensity,[23]; [24],56.5 MFI
same,fluorescence intensity,[23]; [25],271 MFI
same,fluorescence intensity,[23]; [26],517 MFI
same,fluorescence intensity,[23]; [27],707 MFI

# Reformatted as tab-separated lines: part of the list above
binder	measurement	setting	value
B1	fluorescence intensity	[18]; [24]	218 MFI
same	fluorescence intensity	[18]; [25]	1100 MFI
same	fluorescence intensity	[18]; [26]	1810 MFI
same	fluorescence intensity	[18]; [27]	2040 MFI
same	fluorescence intensity	[19]; [28]	23.5 MFI

# No new results follow: entries from further up.
binder,measurement,setting,value
B1,fluorescence intensity,[11]; [30],13 MFI
same,fluorescence intensity,[11]; [31],19 MFI
same,fluorescence intensity,[11]; [24],59.8 MFI
same,fluorescence intensity,[11]; [25],435 MFI
same,fluorescence intensity,[11]; [26],965 MFI
same,fluorescence intensity,[11]; [27],1360 MFI
same,fluorescence intensity,[12]; [28],20.5 MFI

# Some of the entries so far, tab-delimited:
binder	measurement	setting	value
B1	fluorescence intensity	[17]; [28]	20 MFI
same	fluorescence intensity	[17]; [29]	21 MFI
